Results published in patent US6635437B2, “Compounds, compositions and methods for generating chemiluminescence with phosphatase enzymes” (Lumigen, Inc., priority 1996, dated 2003).

Tested on: alkaline phosphatase (AP)
Assay: Chemiluminescent detection of alkaline phosphatase with acridan phosphate and cationic aromatic compound (CAC)
Format: biochemical
Details: Na2SO3 in Reagent A; 4×10^−16 mol AP

## O=S([O-])[O-].[Na+].[Na+] [Na2SO3, sodium sulfite]
  concentration giving the maximum S/B: 1.0 mg/mL
  concentration giving the maximum signal: 1.0 µg/mL
